Laboratory results reported in doi:10.1101/2021.01.27.428547.
Read-outs that look alike come from different tables or passages of the source. Results are given in words; binding and its absence hold for the method and conditions named. Binding seen in cells or lysates may run through a third protein. A yes stands for co-enrichment or nearness to the bait. Other partners may have been found. For some of these results: No binding means not detected with the bait. For some of these results: Tags and fused reporters may be left off the sequences shown.

Amino acid sequences for entries named in this document (tags omitted). A change or cut given only in a name is not applied to a line headed by its entry.
UniProt Q9FKZ2: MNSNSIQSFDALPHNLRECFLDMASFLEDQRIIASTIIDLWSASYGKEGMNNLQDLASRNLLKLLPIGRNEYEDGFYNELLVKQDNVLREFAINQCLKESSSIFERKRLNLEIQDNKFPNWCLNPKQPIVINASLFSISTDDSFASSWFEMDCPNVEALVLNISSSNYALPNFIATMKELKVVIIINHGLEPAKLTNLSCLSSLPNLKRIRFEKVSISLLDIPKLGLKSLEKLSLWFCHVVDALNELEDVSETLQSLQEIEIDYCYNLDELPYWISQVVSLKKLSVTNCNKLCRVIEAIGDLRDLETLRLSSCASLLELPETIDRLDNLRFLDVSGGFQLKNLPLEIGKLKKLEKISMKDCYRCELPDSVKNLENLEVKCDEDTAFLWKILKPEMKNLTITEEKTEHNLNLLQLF
UniProt Q9SU72: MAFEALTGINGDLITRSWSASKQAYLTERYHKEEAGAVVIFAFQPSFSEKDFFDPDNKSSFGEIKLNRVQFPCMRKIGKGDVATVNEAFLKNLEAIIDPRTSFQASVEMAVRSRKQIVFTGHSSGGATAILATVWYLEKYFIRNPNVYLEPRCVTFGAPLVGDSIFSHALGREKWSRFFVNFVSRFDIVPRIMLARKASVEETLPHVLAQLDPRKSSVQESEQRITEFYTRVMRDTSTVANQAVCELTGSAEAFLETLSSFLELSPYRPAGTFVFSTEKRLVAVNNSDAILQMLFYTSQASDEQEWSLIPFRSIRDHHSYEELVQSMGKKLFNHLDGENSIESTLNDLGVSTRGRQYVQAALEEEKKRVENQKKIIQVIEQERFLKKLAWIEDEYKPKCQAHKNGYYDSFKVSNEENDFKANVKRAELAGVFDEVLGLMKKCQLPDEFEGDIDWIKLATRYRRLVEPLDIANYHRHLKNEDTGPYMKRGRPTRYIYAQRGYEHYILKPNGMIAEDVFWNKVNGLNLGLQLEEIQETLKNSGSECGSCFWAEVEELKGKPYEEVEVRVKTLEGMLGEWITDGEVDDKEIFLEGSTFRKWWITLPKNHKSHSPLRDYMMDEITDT
UniProt Q4F883: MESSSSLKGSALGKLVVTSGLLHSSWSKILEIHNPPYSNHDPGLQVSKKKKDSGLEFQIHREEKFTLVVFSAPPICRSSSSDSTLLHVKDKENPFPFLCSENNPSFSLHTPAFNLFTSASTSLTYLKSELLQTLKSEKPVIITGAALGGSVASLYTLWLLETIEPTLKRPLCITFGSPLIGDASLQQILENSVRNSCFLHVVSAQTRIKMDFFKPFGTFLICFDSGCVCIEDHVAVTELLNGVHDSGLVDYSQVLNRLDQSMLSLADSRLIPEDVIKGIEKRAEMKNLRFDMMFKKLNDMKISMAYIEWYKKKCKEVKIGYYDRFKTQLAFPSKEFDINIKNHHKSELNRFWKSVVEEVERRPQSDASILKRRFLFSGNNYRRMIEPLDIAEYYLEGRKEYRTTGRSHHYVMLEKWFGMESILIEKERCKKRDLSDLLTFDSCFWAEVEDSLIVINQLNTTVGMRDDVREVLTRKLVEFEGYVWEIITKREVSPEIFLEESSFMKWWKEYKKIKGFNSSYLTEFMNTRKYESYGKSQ

Columns and labels:
Assay in all cases: proximity labelling
[1] = molecular target: NRG1C-HA-TurboID (A. thaliana) (UniProt Q9FKZ2)
[2] = molecular target: EDS1-HA-TurboID (A. thaliana) (UniProt Q9SU72)
[3] = molecular target: EDS1-HA-TurboID (A. thaliana) (UniProt Q9SU72); remark: listed apart in the source

Molecule | binding [1] | also measured
EDS1 (endogenous, A. thaliana) (from UniProt Q9SU72) | no binding | 
SAG101-3FLAG (in A. thaliana) (from UniProt Q4F883) | binds | 
SAG101-3FLAG (in N. benthamiana) (from UniProt Q4F883) |  | binding [2]: binds
PAD4-ZZ-TEV-FLAG (protein, UniProt Q9S745 1-541) MDDCRFETSELQASVMISTPLFTDSWSSCNTANCNGSIKIHDIAGITYVAIPAVSMIQLGNLVGLPVTGDVLFPGLSSDEPLPMVDAAILKLFLQLKIKEGLELELLGKKLVVITGHSTGGALAAFTALWLLSQSSPPSFRVFCITFGSPLLGNQSLSTSISRSRLAHNFCHVVSIHDLVPRSSNEQFWPFGTYLFCSDKGGVCLDNAGSVRLMFNILNTTATQNTEEHQRYGHYVFTLSHMFLKSRSFLGGSIPDNSYQAGVALAVEALGFSNDDTSGVLVKECIETATRIVRAPILRSAELANELASVLPARLEIQWYKDRCDASEEQLGYYDFFKRYSLKRDFKVNMSRIRLAKFWDTVIKMVETNELPFDFHLGKKWIYASQFYQLLAEPLDIANFYKNRDIKTGGHYLEGNRPKRYEVIDKWQKGVKVPEECVRSRYASTTQDTCFWAKLEQAKEWLDEARKESSDPQRRSLLREKIVPFESYANTLVTKKEVSLDVKAKNSSYSVWEANLKEFKCKMGYENEIEMVVDESDAMET |  | binding [3]: binds
